PMC4358907
No constants are given. Whether binding was seen depends on the method and setting. Binding seen in cells or lysates may run through a third protein. Here binding means that the protein was enriched with, or labelled near, the bait; the list need not be complete. For some of these results: A no says only that the protein was not detected with the bait. Sequences can lack the tags named with a protein.

T1: One-STrEP-tag:ATSWC4 fusion protein (Arabidopsis thaliana) (UniProt Q8VZL6)
T1 sequence: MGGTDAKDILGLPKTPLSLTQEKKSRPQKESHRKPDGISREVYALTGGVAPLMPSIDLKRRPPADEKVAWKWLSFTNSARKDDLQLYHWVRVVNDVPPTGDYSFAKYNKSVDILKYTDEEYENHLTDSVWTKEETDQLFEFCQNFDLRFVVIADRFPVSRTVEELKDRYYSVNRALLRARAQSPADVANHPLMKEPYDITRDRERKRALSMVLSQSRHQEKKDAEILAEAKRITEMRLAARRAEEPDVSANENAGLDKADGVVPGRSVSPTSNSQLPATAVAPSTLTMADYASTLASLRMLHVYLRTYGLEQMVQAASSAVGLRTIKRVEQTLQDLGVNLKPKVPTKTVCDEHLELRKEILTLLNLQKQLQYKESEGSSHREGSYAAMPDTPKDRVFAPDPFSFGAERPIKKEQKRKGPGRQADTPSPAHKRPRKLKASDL

T2: One-STrEP-tag:ATARP4 fusion protein (Arabidopsis thaliana) (UniProt Q84M92)
T2 sequence: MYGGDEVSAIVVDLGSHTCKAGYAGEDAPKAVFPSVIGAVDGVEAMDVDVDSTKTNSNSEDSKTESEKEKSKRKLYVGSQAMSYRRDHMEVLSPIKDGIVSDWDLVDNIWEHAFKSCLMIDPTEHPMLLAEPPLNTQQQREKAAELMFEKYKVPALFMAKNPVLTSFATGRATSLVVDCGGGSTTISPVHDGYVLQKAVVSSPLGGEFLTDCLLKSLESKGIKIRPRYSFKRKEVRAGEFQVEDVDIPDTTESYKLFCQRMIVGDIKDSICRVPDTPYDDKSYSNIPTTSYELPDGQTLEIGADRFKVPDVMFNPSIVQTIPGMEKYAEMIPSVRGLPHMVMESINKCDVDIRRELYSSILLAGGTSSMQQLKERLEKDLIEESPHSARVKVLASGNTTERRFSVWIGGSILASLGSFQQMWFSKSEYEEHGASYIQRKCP

B1: MINU2 (protein, UniProt F4K128 1-1064)
chain: MVKQLQEQEENDPVEKTKSLISALNYLSRDLLLPSHLYASVSSIYHASVSDLSPSPPLRGNSYTPNRGDLMSEFEDALLQQRLNYESGSRLAELKETRYKNRIHNRLSQLEGLPSNRGEDLQEKCLLELYGLKLQELQCRVRGEVSAEYWLRLNCADPERQLYDWGMMRLPRRMYGVGDSFVMEADDQFRNKRDAERLLRLEEEEKNLIETTQRKFFAEVLNAVREFQLQIQASHRRCKQRNDGVQAWHGKQRQRATRAEKLRIMALKSDDQEEYMKLAKESKNEKLTLFLEETNKIFVSLGAAVQRQKDAKLSENTKLLKGSESDLSDVDAPEDVLPAQDIEIIDSDNNDDSNDLLEGERQFNLAIHSIQEKVTKQPSLLQGGELRSYQLEGLQWMVSLYNNDYNGILADEMGLGKTIQTIALIAYLLESKDLHGPHLILAPKAVLPNWENEFALWAPSISAFLYDGSKEKRTEIRARIAGGKFNVLITHYDLIMRDKAFLKKIDWNYMIVDEGHRLKNHECALAKTLGTGYRIKRRLLLTGTPIQNSLQELWSLLNFLLPHIFNSIHNFEEWFNTPFAECGSASLTDEEELLIINRLHHVIRPFLLRRKKSEVEKFLPGKTQVILKCDMSAWQKLYYKQVTDVGRVGLHSGNGKSKSLQNLTMQLRKCCNHPYLFVGADYNMCKKPEIVRASGKFELLDRLLPKLKKAGHRILLFSQMTRLIDLLEIYLSLNDYMYLRLDGSTKTDQRGILLKQFNEPDSPYFMFLLSTRAGGLGLNLQTADTIIIFDSDWNPQMDQQAEDRAHRIGQKKEVRVFVLVSIGSIEEVILERAKQKMGIDAKVIQAGLFNTTSTAQDRREMLEEIMSKGTSSLGEDVPSEREINRLAARTEEEFWMFEQMDEERRKKENYKTRLMEEKEVPEWAYTSETQEDKTNAKNHFGSLTGKRKRKEAVYSDSLSDLQWMKAMESEDEDASKVSQKRKRTDTKTRMSNGSKAEAVLSESDEEKEEEEEERKEESGKESEEENEKPLHSWKTNKKKRSRYPVMTSSPNSRGKGSSKGSKRN
B2: SWI3C (protein, UniProt Q9XI07 1-807)
chain: MPASEDRRGKWKRKKRGGLSAARKPKQEEEDMEEEDEENNNNNNEEMDDVENADELQQNGGATPDPGLGIGEVVEDSGSRISDFPAVVKRVVIRPHASVMAVVAAERAGLIGETRGQGSLPALENISFGQLQALSTVPADSLDLERSDGSSSAYVISPPPIMDGEGVVKRFGDLVHVLPMHSDWFAPNTVDRLERQVVPQFFSGKSPNHTPESYMEFRNAIVSKYVENPEKTLTISDCQGLVDGVDIEDFARVFRFLDHWGIINYCATAQSHPGPLRDVSDVREDTNGEVNVPSAALTSIDSLIKFDKPNCRHKGGEVYSSLPSLDGDSPDLDIRIREHLCDSHCNHCSRPLPTVYFQSQKKGDILLCCDCFHHGRFVVGHSCLDFVRVDPMKFYGDQDGDNWTDQETLLLLEAVELYNENWVQIADHVGSKSKAQCILHFLRLPVEDGLLDNVEVSGVTNTENPTNGYDHKGTDSNGDLPGYSEQGSDTEIKLPFVKSPNPVMALVAFLASAVGPRVAASCAHESLSVLSEDDRMKSEGMQGKEASLLDGENQQQDGAHKTSSQNGAEAQTPLPQDKVMAAFRAGLSAAATKAKLFADHEEREIQRLSANIVNHQLKRMELKLKQFAEIETLLMKECEQVEKTRQRFSAERARMLSARFGSPGGISPQTNNLQGMSLSTGGNNINSLMHQQHQQQQASATSQPSIIPGFSNNPQVQAQMHFMARQQQQQQQQQQQQQQAFSFGPRLPLNAIQTNAGSTASPNVMFGNNQLNNPAAAGAASINQPSFSHPMVRSSTGSGSGSGLGLN

How the values were obtained:
[1] = biological target: T1, One-STrEP-tag:ATSWC4 fusion protein (Arabidopsis thaliana); assay: affinity purification with mass spectrometry; One-STrEP-tagged bait stably expressed in Arabidopsis T87 suspension cells; extract in buffer H or L loaded on Strep-Tactin Superflow resin, seven washes (100 mM Tris-HCl pH 8.0, 150 mM NaCl), eluted with 2.5 mM desthiobiotin; MS/MS (Orbitrap Velos); hits of controls with no bait or Strep-GFP removed
[2] = biological target: T2, One-STrEP-tag:ATARP4 fusion protein (Arabidopsis thaliana); assay: as above

Binder | binding [1] | binding [2]
B1 | no binding | binds
B2 | no binding | binds
